Assay in all cases: affinity purification with mass spectrometry; FLAG-HA tandem purification from high-salt (400 mM KCl) nuclear extracts of HeLa S3 stably expressing the FH-tagged bait, dialysed to KETNG150; eluate analysed by mass spectrometry; empty vector as control
Experiment [1] concerns the target T1, FLAG-HA-POLD3, stably expressed in HeLa S3 (human) (UniProt Q15054).
T1 sequence: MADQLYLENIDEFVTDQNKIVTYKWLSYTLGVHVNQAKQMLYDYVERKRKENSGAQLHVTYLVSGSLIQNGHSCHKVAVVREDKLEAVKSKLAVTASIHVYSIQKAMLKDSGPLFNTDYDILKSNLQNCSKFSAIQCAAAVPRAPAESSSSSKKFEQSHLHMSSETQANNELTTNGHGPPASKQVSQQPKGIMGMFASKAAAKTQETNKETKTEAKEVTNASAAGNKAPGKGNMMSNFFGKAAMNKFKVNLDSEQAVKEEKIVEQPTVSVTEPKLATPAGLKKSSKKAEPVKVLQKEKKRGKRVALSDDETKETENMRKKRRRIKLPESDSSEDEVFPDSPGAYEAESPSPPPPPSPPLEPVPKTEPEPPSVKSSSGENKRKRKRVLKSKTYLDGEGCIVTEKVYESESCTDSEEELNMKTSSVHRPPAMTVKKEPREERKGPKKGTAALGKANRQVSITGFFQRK

The chains behind the UniProt entries cited, without tags or fusion partners.
UniProt P28340: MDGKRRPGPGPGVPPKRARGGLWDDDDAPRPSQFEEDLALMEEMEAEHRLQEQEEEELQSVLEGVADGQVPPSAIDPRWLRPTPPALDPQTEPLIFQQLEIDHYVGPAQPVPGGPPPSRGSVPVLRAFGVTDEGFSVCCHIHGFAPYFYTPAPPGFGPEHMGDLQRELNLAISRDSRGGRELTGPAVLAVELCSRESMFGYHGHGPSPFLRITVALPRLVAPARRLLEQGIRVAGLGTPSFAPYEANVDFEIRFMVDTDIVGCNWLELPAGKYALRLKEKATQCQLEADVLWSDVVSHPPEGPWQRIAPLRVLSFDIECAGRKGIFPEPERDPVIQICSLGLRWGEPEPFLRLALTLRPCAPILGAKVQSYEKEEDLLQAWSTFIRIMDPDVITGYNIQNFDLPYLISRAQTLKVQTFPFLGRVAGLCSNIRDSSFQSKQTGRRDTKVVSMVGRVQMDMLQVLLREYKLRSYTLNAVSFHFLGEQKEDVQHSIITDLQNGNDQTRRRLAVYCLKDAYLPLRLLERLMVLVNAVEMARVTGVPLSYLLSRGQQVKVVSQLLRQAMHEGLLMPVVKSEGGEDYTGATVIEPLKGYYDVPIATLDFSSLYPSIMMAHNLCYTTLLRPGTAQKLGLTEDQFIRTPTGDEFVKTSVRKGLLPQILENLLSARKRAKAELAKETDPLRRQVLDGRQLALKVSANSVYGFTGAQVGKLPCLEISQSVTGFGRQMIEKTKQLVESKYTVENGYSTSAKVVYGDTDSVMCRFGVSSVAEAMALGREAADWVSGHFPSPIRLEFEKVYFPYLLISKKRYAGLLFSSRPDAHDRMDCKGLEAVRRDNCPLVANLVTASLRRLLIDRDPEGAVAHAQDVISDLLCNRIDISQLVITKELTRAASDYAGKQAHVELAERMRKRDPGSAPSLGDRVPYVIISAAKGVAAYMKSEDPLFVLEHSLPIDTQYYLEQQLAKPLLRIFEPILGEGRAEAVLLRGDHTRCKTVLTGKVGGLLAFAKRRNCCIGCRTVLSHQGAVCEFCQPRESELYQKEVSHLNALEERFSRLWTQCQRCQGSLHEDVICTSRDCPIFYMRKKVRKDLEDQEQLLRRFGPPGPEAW
UniProt P49005: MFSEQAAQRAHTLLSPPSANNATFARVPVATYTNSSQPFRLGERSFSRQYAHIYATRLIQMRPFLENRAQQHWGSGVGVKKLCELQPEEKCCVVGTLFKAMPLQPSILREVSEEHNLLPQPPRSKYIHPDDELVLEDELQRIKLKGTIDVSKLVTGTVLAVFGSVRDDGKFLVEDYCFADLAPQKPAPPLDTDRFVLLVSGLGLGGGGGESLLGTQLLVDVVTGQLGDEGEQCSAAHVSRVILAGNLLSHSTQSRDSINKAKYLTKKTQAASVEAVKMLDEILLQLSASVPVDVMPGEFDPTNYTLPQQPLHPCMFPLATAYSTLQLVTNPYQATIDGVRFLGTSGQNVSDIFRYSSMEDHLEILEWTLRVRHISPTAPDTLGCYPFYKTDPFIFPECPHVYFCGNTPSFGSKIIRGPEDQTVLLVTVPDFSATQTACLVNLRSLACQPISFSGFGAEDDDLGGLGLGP
UniProt O60673: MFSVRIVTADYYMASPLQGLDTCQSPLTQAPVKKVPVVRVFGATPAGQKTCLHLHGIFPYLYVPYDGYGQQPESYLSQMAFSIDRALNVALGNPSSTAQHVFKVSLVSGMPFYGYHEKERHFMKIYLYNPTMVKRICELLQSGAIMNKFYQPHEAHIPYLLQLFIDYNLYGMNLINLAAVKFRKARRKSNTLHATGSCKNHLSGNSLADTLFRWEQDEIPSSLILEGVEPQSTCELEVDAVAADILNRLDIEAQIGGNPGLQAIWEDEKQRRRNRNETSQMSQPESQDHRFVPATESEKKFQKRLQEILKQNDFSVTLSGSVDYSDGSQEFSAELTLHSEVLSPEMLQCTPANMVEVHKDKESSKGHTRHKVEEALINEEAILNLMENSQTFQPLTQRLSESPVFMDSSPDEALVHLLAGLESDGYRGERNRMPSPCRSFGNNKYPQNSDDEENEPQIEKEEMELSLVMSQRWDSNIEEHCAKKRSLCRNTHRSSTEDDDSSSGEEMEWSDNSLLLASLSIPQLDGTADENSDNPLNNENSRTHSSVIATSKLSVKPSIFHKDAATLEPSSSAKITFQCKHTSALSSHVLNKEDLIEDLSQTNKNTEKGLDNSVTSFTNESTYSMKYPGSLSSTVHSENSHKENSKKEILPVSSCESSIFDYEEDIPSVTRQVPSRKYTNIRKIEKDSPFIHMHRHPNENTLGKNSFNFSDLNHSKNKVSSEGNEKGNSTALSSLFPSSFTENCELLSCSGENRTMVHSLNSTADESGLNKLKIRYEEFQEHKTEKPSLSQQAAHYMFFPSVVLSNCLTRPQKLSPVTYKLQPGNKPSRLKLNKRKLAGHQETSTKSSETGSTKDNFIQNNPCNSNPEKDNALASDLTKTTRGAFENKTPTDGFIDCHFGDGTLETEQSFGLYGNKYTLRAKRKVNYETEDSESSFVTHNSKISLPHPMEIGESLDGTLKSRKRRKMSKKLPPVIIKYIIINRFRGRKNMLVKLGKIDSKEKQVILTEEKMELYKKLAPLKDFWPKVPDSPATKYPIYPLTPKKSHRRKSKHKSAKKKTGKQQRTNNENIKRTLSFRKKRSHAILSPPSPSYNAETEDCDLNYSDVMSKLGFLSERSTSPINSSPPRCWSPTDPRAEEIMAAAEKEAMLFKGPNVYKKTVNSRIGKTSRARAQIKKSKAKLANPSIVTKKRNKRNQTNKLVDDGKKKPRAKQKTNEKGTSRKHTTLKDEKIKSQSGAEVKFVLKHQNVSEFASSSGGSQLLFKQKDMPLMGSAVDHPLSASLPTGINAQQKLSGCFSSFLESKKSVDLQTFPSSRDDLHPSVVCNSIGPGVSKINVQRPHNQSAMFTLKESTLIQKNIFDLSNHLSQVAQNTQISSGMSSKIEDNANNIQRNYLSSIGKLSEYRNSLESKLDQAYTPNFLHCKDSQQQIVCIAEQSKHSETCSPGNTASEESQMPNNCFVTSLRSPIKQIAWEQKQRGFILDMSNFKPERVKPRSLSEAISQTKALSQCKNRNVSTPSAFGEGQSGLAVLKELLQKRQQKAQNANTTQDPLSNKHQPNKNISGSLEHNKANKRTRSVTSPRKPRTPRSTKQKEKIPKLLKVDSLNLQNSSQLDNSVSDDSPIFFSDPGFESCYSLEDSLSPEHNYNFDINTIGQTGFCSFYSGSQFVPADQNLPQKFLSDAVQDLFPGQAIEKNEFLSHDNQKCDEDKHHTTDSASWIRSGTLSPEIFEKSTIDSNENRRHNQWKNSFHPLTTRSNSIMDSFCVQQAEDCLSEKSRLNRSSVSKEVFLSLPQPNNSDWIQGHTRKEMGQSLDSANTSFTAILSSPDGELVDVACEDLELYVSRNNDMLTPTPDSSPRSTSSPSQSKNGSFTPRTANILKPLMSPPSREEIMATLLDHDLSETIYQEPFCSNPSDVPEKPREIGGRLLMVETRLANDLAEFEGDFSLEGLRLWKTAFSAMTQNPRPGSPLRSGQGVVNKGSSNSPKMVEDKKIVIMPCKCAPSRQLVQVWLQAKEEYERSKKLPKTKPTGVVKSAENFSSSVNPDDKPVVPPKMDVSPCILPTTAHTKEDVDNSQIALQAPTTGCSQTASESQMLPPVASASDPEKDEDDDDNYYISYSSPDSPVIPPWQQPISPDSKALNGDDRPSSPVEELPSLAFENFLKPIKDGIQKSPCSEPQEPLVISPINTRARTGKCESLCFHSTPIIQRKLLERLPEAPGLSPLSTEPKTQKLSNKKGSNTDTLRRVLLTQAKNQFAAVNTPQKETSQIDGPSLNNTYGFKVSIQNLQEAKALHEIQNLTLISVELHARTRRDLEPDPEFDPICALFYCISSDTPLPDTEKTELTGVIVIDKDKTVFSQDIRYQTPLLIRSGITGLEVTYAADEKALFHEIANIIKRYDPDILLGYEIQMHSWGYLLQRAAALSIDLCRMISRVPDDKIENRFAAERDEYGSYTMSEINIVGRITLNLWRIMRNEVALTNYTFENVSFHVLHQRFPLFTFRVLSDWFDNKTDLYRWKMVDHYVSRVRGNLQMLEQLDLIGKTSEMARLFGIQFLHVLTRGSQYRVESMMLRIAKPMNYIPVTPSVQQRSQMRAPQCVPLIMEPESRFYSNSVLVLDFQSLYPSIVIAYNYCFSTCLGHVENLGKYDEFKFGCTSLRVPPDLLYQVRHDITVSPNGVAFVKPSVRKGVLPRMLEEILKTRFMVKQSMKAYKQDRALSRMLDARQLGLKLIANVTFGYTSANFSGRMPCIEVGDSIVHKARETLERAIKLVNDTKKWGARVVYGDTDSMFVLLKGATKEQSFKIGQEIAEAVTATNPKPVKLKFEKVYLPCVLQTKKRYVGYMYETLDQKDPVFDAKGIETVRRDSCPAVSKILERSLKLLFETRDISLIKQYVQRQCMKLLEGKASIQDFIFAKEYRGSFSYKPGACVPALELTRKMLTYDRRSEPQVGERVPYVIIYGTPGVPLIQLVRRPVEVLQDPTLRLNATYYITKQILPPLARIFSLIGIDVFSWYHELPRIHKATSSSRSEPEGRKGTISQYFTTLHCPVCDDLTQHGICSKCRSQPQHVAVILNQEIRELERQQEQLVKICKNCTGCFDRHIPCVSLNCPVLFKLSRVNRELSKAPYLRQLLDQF
UniProt Q9UI95: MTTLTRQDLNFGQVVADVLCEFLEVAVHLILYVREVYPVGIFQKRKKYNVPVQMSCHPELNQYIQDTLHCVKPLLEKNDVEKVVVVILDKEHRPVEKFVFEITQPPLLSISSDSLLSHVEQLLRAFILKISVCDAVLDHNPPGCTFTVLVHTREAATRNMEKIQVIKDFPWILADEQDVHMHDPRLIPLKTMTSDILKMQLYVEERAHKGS
UniProt Q9UQE7: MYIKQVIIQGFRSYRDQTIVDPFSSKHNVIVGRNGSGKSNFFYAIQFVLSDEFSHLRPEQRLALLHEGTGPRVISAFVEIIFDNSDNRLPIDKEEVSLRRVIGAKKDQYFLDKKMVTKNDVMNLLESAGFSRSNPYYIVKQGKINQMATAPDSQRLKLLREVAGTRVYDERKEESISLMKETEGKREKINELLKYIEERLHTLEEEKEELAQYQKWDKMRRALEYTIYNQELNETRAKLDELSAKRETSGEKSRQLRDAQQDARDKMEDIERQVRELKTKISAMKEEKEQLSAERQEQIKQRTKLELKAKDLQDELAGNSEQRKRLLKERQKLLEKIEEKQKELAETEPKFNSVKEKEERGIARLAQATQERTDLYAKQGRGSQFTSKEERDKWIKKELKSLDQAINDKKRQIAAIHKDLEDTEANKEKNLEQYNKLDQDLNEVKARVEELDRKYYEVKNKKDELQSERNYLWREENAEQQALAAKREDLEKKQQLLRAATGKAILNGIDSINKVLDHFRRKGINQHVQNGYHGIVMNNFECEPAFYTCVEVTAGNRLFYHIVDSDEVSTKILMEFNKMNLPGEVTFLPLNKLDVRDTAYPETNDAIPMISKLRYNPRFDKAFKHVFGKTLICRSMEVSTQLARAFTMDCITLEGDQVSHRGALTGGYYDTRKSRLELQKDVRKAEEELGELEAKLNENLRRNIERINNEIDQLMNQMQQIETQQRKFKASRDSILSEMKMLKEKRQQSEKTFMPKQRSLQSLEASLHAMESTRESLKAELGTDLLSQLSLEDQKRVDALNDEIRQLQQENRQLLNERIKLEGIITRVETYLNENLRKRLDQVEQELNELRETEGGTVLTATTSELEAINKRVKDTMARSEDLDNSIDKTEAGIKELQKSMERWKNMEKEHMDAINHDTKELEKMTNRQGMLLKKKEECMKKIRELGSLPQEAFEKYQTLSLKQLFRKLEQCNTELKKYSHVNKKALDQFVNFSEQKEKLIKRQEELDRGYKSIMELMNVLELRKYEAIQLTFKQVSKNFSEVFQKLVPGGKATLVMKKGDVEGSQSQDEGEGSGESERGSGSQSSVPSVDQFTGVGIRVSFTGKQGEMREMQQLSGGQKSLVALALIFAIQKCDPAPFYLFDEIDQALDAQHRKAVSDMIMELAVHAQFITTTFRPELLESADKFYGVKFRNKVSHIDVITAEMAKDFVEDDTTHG

Experiment [2] has as its target T2, FLAG-HA-SPATA5, stably expressed in HeLa S3 (human) (UniProt Q8NB90).
T2 sequence: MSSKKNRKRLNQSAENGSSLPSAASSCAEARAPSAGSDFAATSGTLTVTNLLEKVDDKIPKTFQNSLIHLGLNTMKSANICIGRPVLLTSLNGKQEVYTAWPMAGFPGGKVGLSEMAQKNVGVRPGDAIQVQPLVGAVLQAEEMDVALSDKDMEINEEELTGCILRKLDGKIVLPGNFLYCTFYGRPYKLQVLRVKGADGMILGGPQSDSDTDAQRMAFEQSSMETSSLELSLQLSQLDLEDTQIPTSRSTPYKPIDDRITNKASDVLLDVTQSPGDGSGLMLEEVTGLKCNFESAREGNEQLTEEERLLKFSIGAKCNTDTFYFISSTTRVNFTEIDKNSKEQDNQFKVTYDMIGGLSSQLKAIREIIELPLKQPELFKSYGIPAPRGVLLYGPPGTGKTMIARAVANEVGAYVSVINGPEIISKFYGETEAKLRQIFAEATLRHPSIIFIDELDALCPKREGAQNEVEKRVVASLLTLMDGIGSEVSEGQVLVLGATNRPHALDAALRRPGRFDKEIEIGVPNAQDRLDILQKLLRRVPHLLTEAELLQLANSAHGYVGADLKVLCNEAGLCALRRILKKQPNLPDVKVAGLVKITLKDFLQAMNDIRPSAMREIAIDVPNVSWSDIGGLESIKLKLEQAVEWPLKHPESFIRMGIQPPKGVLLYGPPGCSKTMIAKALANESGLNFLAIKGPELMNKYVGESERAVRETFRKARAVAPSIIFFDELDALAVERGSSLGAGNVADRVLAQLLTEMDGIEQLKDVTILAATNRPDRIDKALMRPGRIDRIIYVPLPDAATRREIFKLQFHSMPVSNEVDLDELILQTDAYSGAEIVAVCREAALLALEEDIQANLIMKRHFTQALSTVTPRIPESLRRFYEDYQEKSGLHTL

Experiment [3] addresses T3, FLAG-HA-SPATA5L1, stably expressed in HeLa S3 (human) (UniProt Q9BVQ7).
T3 sequence: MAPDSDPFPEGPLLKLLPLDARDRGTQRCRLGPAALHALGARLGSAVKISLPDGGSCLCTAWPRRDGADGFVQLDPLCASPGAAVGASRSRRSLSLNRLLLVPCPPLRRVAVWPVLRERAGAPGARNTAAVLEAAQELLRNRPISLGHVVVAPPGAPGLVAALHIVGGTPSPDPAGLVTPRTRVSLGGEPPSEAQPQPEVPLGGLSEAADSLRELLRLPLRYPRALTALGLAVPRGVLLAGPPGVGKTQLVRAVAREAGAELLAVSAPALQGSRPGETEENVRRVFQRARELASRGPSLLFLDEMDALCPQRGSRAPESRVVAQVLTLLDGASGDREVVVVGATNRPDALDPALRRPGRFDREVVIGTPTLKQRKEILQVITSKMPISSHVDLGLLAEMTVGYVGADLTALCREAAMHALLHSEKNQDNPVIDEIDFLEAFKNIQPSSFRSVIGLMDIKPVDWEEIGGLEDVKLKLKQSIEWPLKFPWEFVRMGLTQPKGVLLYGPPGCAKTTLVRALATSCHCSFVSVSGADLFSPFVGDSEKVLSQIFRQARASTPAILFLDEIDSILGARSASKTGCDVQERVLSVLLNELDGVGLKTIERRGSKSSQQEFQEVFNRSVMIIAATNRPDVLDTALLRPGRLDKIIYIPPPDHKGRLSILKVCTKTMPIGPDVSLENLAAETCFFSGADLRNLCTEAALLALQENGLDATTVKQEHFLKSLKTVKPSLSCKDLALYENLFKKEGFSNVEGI

These are yes or no findings as the source states them, for the method shown. Binding seen in cells or lysates may run through a third protein. A yes stands for co-enrichment or nearness to the bait. Other partners may have been found. Where a sequence is shown, tags or fusion partners need not be part of it.

As to “POLD1 (HeLa S3 nuclear extract) (from UniProt P28340 1-1107)”, the binding entry in experiment [1], in experiment [2] and in experiment [3] was “binds” throughout. On to “POLD2 (HeLa S3 nuclear extract) (from UniProt P49005 1-469)”, for which the binding entry in experiment [1] is “binds”. “REV3L (HeLa S3 nuclear extract) (from UniProt O60673 1-3130)”: the binding entry in experiment [1] is listed as “binds”. Take “REV7 (HeLa S3 nuclear extract) (from UniProt Q9UI95 1-211)”: the binding result in experiment [1] was “binds”.

With “SMC3 (HeLa S3 nuclear extract) (from UniProt Q9UQE7 1-1217)”, the binding entry in experiment [2] and in experiment [3] was “binds” each time.

These data come from PMC11055677.
